Assay results reported in the supplement of paper PMC8728848.
Some of the results follow.

Experiments:
Test in all cases: glycan array binding signal (z-score within array); higher = stronger binding
Details in all cases: glycan notation: IUPAC condensed, linker removed
[1] = target: Fuc(a1-2)[Gal(a1-3)]Gal(b1-4)GlcNAc(b1-2)Man(a1-3)[Fuc(a1-2)[Gal(a1-3)]Gal(b1-4)GlcNAc(b1-2)Man(a1-6)]Man(b1-4)GlcNAc(b1-4)[Fuc(a1-6)]GlcNAc
Method in brief: (§1)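 Glycan array data came from 3228 arrays in the Consortium for Functional Glycomics database, and only arrays with an available protein sequence were kept. Glycan names were put into IUPAC-condensed notation, and columns mapping to the same glycan were averaged. The binding signal is a within-array Z-score, averaged across arrays of one protein sequence run at different concentrations or buffers and across linkers. A negative Z-score can be read as non-binding.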

[2] = target: Fuc(a1-2)[Gal(a1-3)]Gal(b1-4)GlcNAc(b1-3)GalNAc
Method in brief: as §1

[3] = target: Fuc(a1-2)[Gal(a1-3)]Gal(b1-4)GlcNAc(b1-3)[Fuc(a1-2)[Gal(a1-3)]Gal(b1-4)GlcNAc(b1-6)]GalNAc
Method in brief: as §1

[4] = target: Fuc(a1-2)[Gal(a1-3)]Gal(b1-4)GlcNAc(b1-6)GalNAc
Method in brief: as §1

[5] = target: Fuc(a1-2)[Gal(a1-3)]Gal(b1-4)[Fuc(a1-3)]Glc
Method in brief: as §1

[6] = target: Fuc(a1-2)[Gal(a1-3)]Gal(b1-4)[Fuc(a1-3)]GlcNAc
Method in brief: as §1

[7] = target: Fuc(a1-2)[Gal(a1-3)]Gal(b1-4)[Fuc(a1-3)]GlcNAc(b1-3)GalNAc
Method in brief: as §1

[8] = target: Fuc(a1-2)[Gal(a1-4)]Gal(b1-4)GlcNAc
Method in brief: as §1

[9] = target: Fuc(a1-2)[GalNAc(a1-3)]Gal
Method in brief: as §1

[10] = target: Fuc(a1-2)[GalNAc(a1-3)]Gal(b1-3)GalNAc(a1-3)[Fuc(a1-2)]Gal(b1-4)GlcNAc
Method in brief: as §1

[11] = target: Fuc(a1-2)[GalNAc(a1-3)]Gal(b1-3)GalNAc(b1-3)Gal(a1-4)Gal(b1-4)Glc
Method in brief: as §1

[12] = target: Fuc(a1-2)[GalNAc(a1-3)]Gal(b1-3)GlcNAc
Method in brief: as §1

[13] = target: Fuc(a1-2)[GalNAc(a1-3)]Gal(b1-3)GlcNAc(b1-2)Man(a1-3)[Fuc(a1-2)[GalNAc(a1-3)]Gal(b1-3)GlcNAc(b1-2)Man(a1-6)]Man(b1-4)GlcNAc(b1-4)GlcNAc
Method in brief: as §1

[14] = target: Fuc(a1-2)[GalNAc(a1-3)]Gal(b1-3)GlcNAc(b1-2)Man(a1-3)[Fuc(a1-2)[GalNAc(a1-3)]Gal(b1-3)GlcNAc(b1-2)Man(a1-6)]Man(b1-4)GlcNAc(b1-4)[Fuc(a1-6)]GlcNAc
Method in brief: as §1

[15] = target: Fuc(a1-2)[GalNAc(a1-3)]Gal(b1-3)GlcNAc(b1-3)GalNAc
Method in brief: as §1

[16] = target: Fuc(a1-2)[GalNAc(a1-3)]Gal(b1-3)GlcNAc(b1-6)GalNAc
Method in brief: as §1

[17] = target: Fuc(a1-2)[GalNAc(a1-3)]Gal(b1-4)Glc
Method in brief: as §1

[18] = target: Fuc(a1-2)[GalNAc(a1-3)]Gal(b1-4)GlcNAc
Method in brief: as §1

[19] = target: Fuc(a1-2)[GalNAc(a1-3)]Gal(b1-4)GlcNAc(b1-2)Man
Method in brief: as §1

[20] = target: Fuc(a1-2)[GalNAc(a1-3)]Gal(b1-4)GlcNAc(b1-2)Man(a1-3)[Fuc(a1-2)[GalNAc(a1-3)]Gal(b1-4)GlcNAc(b1-2)Man(a1-6)]Man(b1-4)GlcNAc(b1-4)GlcNAc
Method in brief: as §1

[21] = target: Fuc(a1-2)[GalNAc(a1-3)]Gal(b1-4)GlcNAc(b1-2)Man(a1-3)[Fuc(a1-2)[GalNAc(a1-3)]Gal(b1-4)GlcNAc(b1-2)Man(a1-6)]Man(b1-4)GlcNAc(b1-4)[Fuc(a1-6)]GlcNAc
Method in brief: as §1

[22] = target: Fuc(a1-2)[GalNAc(a1-3)]Gal(b1-4)GlcNAc(b1-3)Gal(b1-4)GlcNAc
Method in brief: as §1

[23] = target: Fuc(a1-2)[GalNAc(a1-3)]Gal(b1-4)GlcNAc(b1-3)Gal(b1-4)GlcNAc(b1-3)Gal(b1-4)GlcNAc
Method in brief: as §1

[24] = target: Fuc(a1-2)[GalNAc(a1-3)]Gal(b1-4)GlcNAc(b1-3)GalNAc
Method in brief: as §1

[25] = target: Fuc(a1-2)[GalNAc(a1-3)]Gal(b1-4)GlcNAc(b1-3)[Fuc(a1-2)[GalNAc(a1-3)]Gal(b1-4)GlcNAc(b1-6)]GalNAc
Method in brief: as §1

[26] = target: Fuc(a1-2)[GalNAc(a1-3)]Gal(b1-4)GlcNAc(b1-6)GalNAc
Method in brief: as §1

[27] = target: Fuc(a1-2)[GalNAc(a1-3)]Gal(b1-4)[Fuc(a1-3)]GlcNAc
Method in brief: as §1

[28] = target: Fuc(a1-2)[GalNAc(a1-3)]Gal(b1-4)[Fuc(a1-3)]GlcNAc(b1-3)GalNAc
Method in brief: as §1

[29] = target: Fuc(a1-2)[GalNAc(a1-4)]Gal(b1-4)GlcNAc
Method in brief: as §1

[30] = target: Fuc(a1-2)[GalNAc(b1-3)]Gal
Method in brief: as §1

B1: GS7807I-bvu-563-22-563 (Bacteroides vulgatus) (protein)
chain: IFSSCTDDFEKLNTSNIQVDPADLPFAAQCTEPMTYCYPPQQNMFQFWTNLTIDLYGGYFMTPNGNFTNGDMGENRGHSGGMYENYYLHIFNNTRRIIAQCDASGERGLSGVMRIVQAYGTLMTTDAYGPIPYSSILSGENEVYFEFDSQKDLYKAMLEDLSTAITDISAMGADEIAKLKSFDCWCNGDKDLWVKIANTMKLRMALRLSKRETEAGNAGMNLKAIATEAAQNTLATVNKDILIDKSLENEMWLMFNWGDCGFNANLVTIMSGTKDPRQPLYMTLNTGDIKNEAGTTTVAANSQYLGIRFASGLPAKPNSWGNFSGWIQGNNGSSYSMPLPIMKAAEAYFLLAEAKLRWDIGSESVKNLYENGIRVSMTNELAYRGAYAGIKEYPEGAVDAYINGTSTQIDYTDPIKAELSTPAVNKLSVKWDESASNEEKLERIITQKWLALFPLSTEGWAEQRRTGYPRFFPAFVNESNGAVNTEEGVRRVIYSSQAYDANAKGVEGGIKLLDEENSSKFGISGDKGGTHLWWDNADKGNF
With B1 the “glycan array binding signal (z-score)” value [1] was -0.882, the “glycan array binding signal (z-score)” value [2] was -0.837 and the “glycan array binding signal (z-score)” value [3] was 0.034. The “glycan array binding signal (z-score)” value [4] was -1.37, the “glycan array binding signal (z-score)” value [5] was -0.863 and the “glycan array binding signal (z-score)” value [6] was -0.181. For the same binder, the “glycan array binding signal (z-score)” value [7] was 1.22, the “glycan array binding signal (z-score)” value [8] was 0.118 and the “glycan array binding signal (z-score)” value [9] was 0.659. The “glycan array binding signal (z-score)” value [10] was -0.514, the “glycan array binding signal (z-score)” value [11] was -0.726 and the “glycan array binding signal (z-score)” value [12] was -0.317. For the same binder, the “glycan array binding signal (z-score)” value [13] was 0.967, the “glycan array binding signal (z-score)” value [14] was 0.144 and the “glycan array binding signal (z-score)” value [15] was -0.049. For the same binder, the “glycan array binding signal (z-score)” value [16] was -0.731, the “glycan array binding signal (z-score)” value [17] was -0.623 and the “glycan array binding signal (z-score)” value [18] was -0.373. The “glycan array binding signal (z-score)” value [19] was 0.088, the “glycan array binding signal (z-score)” value [20] was 0.159 and the “glycan array binding signal (z-score)” value [21] was 0.209. The “glycan array binding signal (z-score)” value [22] was 0.151, the “glycan array binding signal (z-score)” value [23] was -0.922 and the “glycan array binding signal (z-score)” value [24] was 0.129. The “glycan array binding signal (z-score)” value [25] was -0.774, the “glycan array binding signal (z-score)” value [26] was -0.23 and the “glycan array binding signal (z-score)” value [27] was 0.893. For the same binder, the “glycan array binding signal (z-score)” value [28] was 1.21, the “glycan array binding signal (z-score)” value [29] was -1.16 and the “glycan array binding signal (z-score)” value [30] was -0.987.
